Measured values: the supplement of paper PMC10077471
In all, about 1,900 compounds were measured (“excess over highest single agent (ExcessHSA) synergy score, 6x6 matrix”: median about -83, lowest 2% from about -370 on). Some of the results follow.

tested on: NCI-H446; assay: excess over highest single agent (ExcessHSA) synergy score, 6x6 matrix; higher = less synergy (more negative = stronger synergy); settings: 72 h; CellTiter-Glo viability

Row | SMILES | excess over highest single agent
1 | N=C(N)NC(=N)N1CCOCC1 + Cc1sc2c(c1C)C(c1ccc(Cl)cc1)=N[C@@H](CC(=O)OC(C)(C)C)c1nnc(C)n1-2 [NCGC00250412-19] | -1.59
2 | CCN(CC)Cc1ccc2cc(COC(=O)Nc3ccc(C(=O)NO)cc3)ccc2c1 + Cc1sc2c(c1C)C(c1ccc(Cl)cc1)=N[C@@H](CC(=O)OC(C)(C)C)c1nnc(C)n1-2 [NCGC00250412-19] | -214
3 | O=c1c(-c2ccc(O)cc2)coc2cc(O[C@@H]3O[C@H](CO)[C@@H](O)[C@H](O)[C@H]3O)cc(O)c12 + Cc1sc2c(c1C)C(c1ccc(Cl)cc1)=N[C@@H](CC(=O)OC(C)(C)C)c1nnc(C)n1-2 [NCGC00250412-19] | 22.1
4 | CCC[C@H](N[C@@H](C)C(=O)N1[C@H](C(=O)O)C[C@@H]2CCCC[C@@H]21)C(=O)OCC + Cc1sc2c(c1C)C(c1ccc(Cl)cc1)=N[C@@H](CC(=O)OC(C)(C)C)c1nnc(C)n1-2 [NCGC00250412-19] | -74.7
5 | Nc1ccn([C@@H]2CO[C@H](CO)O2)c(=O)n1 + Cc1sc2c(c1C)C(c1ccc(Cl)cc1)=N[C@@H](CC(=O)OC(C)(C)C)c1nnc(C)n1-2 [NCGC00250412-19] | -182
6 | CN(C)CCc1c[nH]c2ccc(Cn3cncn3)cc12 + Cc1sc2c(c1C)C(c1ccc(Cl)cc1)=N[C@@H](CC(=O)OC(C)(C)C)c1nnc(C)n1-2 [NCGC00250412-19] | 10.9
7 | O=C(c1ccc(C(=O)N2CCC(N3CCCC3)CC2)c(Nc2ccccc2)c1)N1CCC(N2CCCC2)CC1 + Cc1sc2c(c1C)C(c1ccc(Cl)cc1)=N[C@@H](CC(=O)OC(C)(C)C)c1nnc(C)n1-2 [NCGC00250412-19] | -240
8 | OC[C@H]1O[C@@H](Oc2ccc(O)cc2)[C@H](O)[C@@H](O)[C@@H]1O + Cc1sc2c(c1C)C(c1ccc(Cl)cc1)=N[C@@H](CC(=O)OC(C)(C)C)c1nnc(C)n1-2 [NCGC00250412-19] | 30.8
9 | CS(=O)(=O)c1cc(F)cc2c3c(n(Cc4ccc(Cl)cc4)c12)[C@@H](CC(=O)O)CC3 + Cc1sc2c(c1C)C(c1ccc(Cl)cc1)=N[C@@H](CC(=O)OC(C)(C)C)c1nnc(C)n1-2 [NCGC00250412-19] | -104
10 | CCNC(=O)C[C@H]1N=C(c2ccc(Cl)cc2)c2cc(OC)ccc2-n2c(C)nnc21 + Cc1sc2c(c1C)C(c1ccc(Cl)cc1)=N[C@@H](CC(=O)OC(C)(C)C)c1nnc(C)n1-2 [NCGC00250412-19] | 344
11 | CN(NC(=O)CC(=O)NN(C)C(=S)c1ccccc1)C(=S)c1ccccc1 + Cc1sc2c(c1C)C(c1ccc(Cl)cc1)=N[C@@H](CC(=O)OC(C)(C)C)c1nnc(C)n1-2 [NCGC00250412-19] | -166
12 | COc1cccc(OC)c1-c1cc(C(=O)NC2(C(=O)O)C3CC4CC(C3)CC2C4)nn1-c1ccnc2cc(Cl)ccc12 (centres undefined) + Cc1sc2c(c1C)C(c1ccc(Cl)cc1)=N[C@@H](CC(=O)OC(C)(C)C)c1nnc(C)n1-2 [NCGC00250412-19] | -56.6
13 | CO[C@@H]1[C@@H](OC(N)=O)[C@@H](O)[C@H](Oc2ccc3c(O)c(NC(=O)c4ccc(O)c(CC=C(C)C)c4)c(=O)oc3c2C)OC1(C)C + Cc1sc2c(c1C)C(c1ccc(Cl)cc1)=N[C@@H](CC(=O)OC(C)(C)C)c1nnc(C)n1-2 [NCGC00250412-19] | 165
14 | O=Nc1c(-c2c(O)[nH]c3cc(Br)ccc23)[nH]c2ccccc12 + Cc1sc2c(c1C)C(c1ccc(Cl)cc1)=N[C@@H](CC(=O)OC(C)(C)C)c1nnc(C)n1-2 [NCGC00250412-19] | 84.3
15 | NC(=O)N/N=C/c1ccc([N+](=O)[O-])o1 + Cc1sc2c(c1C)C(c1ccc(Cl)cc1)=N[C@@H](CC(=O)OC(C)(C)C)c1nnc(C)n1-2 [NCGC00250412-19] | -55.6
16 | CC(C)C[C@H](NC(=O)[C@H](CCc1ccccc1)NC(=O)CN1CCOCC1)C(=O)N[C@@H](Cc1ccccc1)C(=O)N[C@@H](CC(C)C)C(=O)[C@@]1(C)CO1 + Cc1sc2c(c1C)C(c1ccc(Cl)cc1)=N[C@@H](CC(=O)OC(C)(C)C)c1nnc(C)n1-2 [NCGC00250412-19] | -521
17 | COc1ccc(-n2c(C)c([N+](=O)[O-])c3ccc(O)cc32)cc1 + Cc1sc2c(c1C)C(c1ccc(Cl)cc1)=N[C@@H](CC(=O)OC(C)(C)C)c1nnc(C)n1-2 [NCGC00250412-19] | -14.3
18 | CN1CCCC(n2nc(Cc3ccc(Cl)cc3)c3ccccc3c2=O)CC1 (centres undefined) + Cc1sc2c(c1C)C(c1ccc(Cl)cc1)=N[C@@H](CC(=O)OC(C)(C)C)c1nnc(C)n1-2 [NCGC00250412-19] | -173
19 | CCOC(=O)[C@H](CCc1ccccc1)N[C@H]1CCc2ccccc2N(CC(=O)O)C1=O + Cc1sc2c(c1C)C(c1ccc(Cl)cc1)=N[C@@H](CC(=O)OC(C)(C)C)c1nnc(C)n1-2 [NCGC00250412-19] | -36.5
20 | C[C@@H](N[C@H]1CCCC[C@@H]1NC(=O)c1ccc(Cl)cc1)c1cccc2ccccc12 + Cc1sc2c(c1C)C(c1ccc(Cl)cc1)=N[C@@H](CC(=O)OC(C)(C)C)c1nnc(C)n1-2 [NCGC00250412-19] | -135
21 | C[C@]12CC[C@H]3[C@@H](CC[C@@]45O[C@@H]4C(O)=C(C#N)C[C@]35C)[C@@H]1CC[C@@H]2O + Cc1sc2c(c1C)C(c1ccc(Cl)cc1)=N[C@@H](CC(=O)OC(C)(C)C)c1nnc(C)n1-2 [NCGC00250412-19] | -25.4
22 | C=CC(=O)Nc1cc(NC(=O)c2ccc(C)c(NC(=O)c3ccno3)c2)cc(C(F)(F)F)c1 + Cc1sc2c(c1C)C(c1ccc(Cl)cc1)=N[C@@H](CC(=O)OC(C)(C)C)c1nnc(C)n1-2 [NCGC00250412-19] | 166
23 | COC1=C(OC)C(=O)C(CCCCCCCCCCO)=C(C)C1=O + Cc1sc2c(c1C)C(c1ccc(Cl)cc1)=N[C@@H](CC(=O)OC(C)(C)C)c1nnc(C)n1-2 [NCGC00250412-19] | -59.5
24 | Cc1nc(NC(=O)N2CCC[C@H]2C(N)=O)sc1-c1csc(C(C)(C)C)n1 + Cc1sc2c(c1C)C(c1ccc(Cl)cc1)=N[C@@H](CC(=O)OC(C)(C)C)c1nnc(C)n1-2 [NCGC00250412-19] | -89.5

Some values from the results shown.
excess over highest single agent with CS(=O)(=O)c1cc(F)cc2c3c(n(Cc4ccc(Cl)cc4)c12)[C@@H](CC(=O)O)CC3 + Cc1sc2c(c1C)C(c1ccc(Cl)cc1)=N[C@@H](CC(=O)OC(C)(C)C)c1nnc(C)n1-2 [NCGC00250412-19] is entered as -104
excess over highest single agent with CO[C@@H]1[C@@H](OC(N)=O)[C@@H](O)[C@H](Oc2ccc3c(O)c(NC(=O)c4ccc(O)c(CC=C(C)C)c4)c(=O)oc3c2C)OC1(C)C + Cc1sc2c(c1C)C(c1ccc(Cl)cc1)=N[C@@H](CC(=O)OC(C)(C)C)c1nnc(C)n1-2 [NCGC00250412-19] is entered as 165
